Experimental data reported in PubChem BioAssay AID330 (DTP/NCI, 2004).
The list does not hold the whole screen: it gathers tests that were run many times, whatever their T/C, doses with no T/C, and many T/C values between a quarter and a half above the control. Further doses and runs are listed elsewhere. T/C: endpoint of the treated group in % of that of the vehicle group. Some entries give survivors of the animals treated and no T/C: the source files T/C as zero there, which appears to mark a toxic dose or a test without result, not a measured value. Some doses without a T/C left all or most animals alive at the check, yet need not have been tolerated: the source hardly ever lists a survival T/C far under the control, and the zero likely stands for such cases as well. Survivors were counted at the toxicity check, usually on the fifth day, unless a day is given; later deaths do not show. Schedules are NCI's codes, taken here to give the interval after Q, in days (D) or hours (H), and the number of doses after X. Some entries were tested several times; the values are given in rising order. For survival time, this PubChem deposit counts one and a half times the control or more as active, and values a quarter to a half above the control carry no call in these data; other NCI protocols may use other cut-offs. Some T/C values carry the count of animals alive at the toxicity check (mostly the fifth day); without a count, all were alive then. Signs of the kind (2×) say how often a value occurs here.

System: P388 leukemia ip, CD2F1 mice, survival T/C
Test: NCI In Vivo Anticancer Drug Screen. Data for tumor model P388 Leukemia (intraperitoneal) in CD2F1 (CDF1) mice
Conditions: T/C endpoint: median survival time, higher T/C = longer survival
[1] = dose: 100.0 micrograms/kg/injection, schedule: Q01DX005 (ip), vehicle: Klucel (hydroxypropylcellulose) (HPC)
[2] = dose: 200.0 micrograms/kg/injection, schedule: Q01DX005 (ip), vehicle: Klucel (hydroxypropylcellulose) (HPC)
[3] = dose: 480.0 micrograms/kg/injection, schedule: Q01DX009 (ip), vehicle: saline with Tween-80
[4] = dose: 200.0 mg/kg/injection, schedule: Q01DX009 (ip), vehicle: saline
[5] = dose: 60.0 mg/kg/injection, schedule: Q01DX005 (ip), vehicle: saline with Tween-80
[6] = dose: 120.0 mg/kg/injection, schedule: Q01DX005 (ip), vehicle: saline with Tween-80
[7] = dose: 240.0 mg/kg/injection, schedule: Q01DX005 (ip), vehicle: saline with Tween-80
[8] = dose: 100.0 mg/kg/injection, schedule: Q04DX003 (ip), vehicle: saline with Tween-80
[9] = dose: 200.0 mg/kg/injection, schedule: Q04DX003 (ip), vehicle: saline with Tween-80
[10] = dose: 400.0 mg/kg/injection, schedule: Q04DX003 (ip), vehicle: saline with Tween-80

CSC1SCC2C(=O)N(C)C(C(C)C)C(=O)OCC(NC(=O)c3cnc4ccccc4n3)C(=O)NC(C)C(=O)N(C)C1C(=O)N(C)C(C(C)C)C(=O)OCC(NC(=O)c1cnc3ccccc3n1)C(=O)NC(C)C(=O)N2C (configuration not stated)
T/C (dose: 1.0 micrograms/kg/injection, schedule: Q01DX010 (ip), vehicle: saline): 140 % of control
T/C (dose: 2.0 micrograms/kg/injection, schedule: Q01DX010 (ip), vehicle: saline): 140 % of control
T/C (dose: 4.0 micrograms/kg/injection, schedule: Q01DX010 (ip), vehicle: saline): 135 % of control
T/C (dose: 7.5 micrograms/kg/injection, schedule: Q01DX009 (ip), vehicle: saline with Tween-80): 127 % of control
T/C (dose: 8.0 micrograms/kg/injection, schedule: Q01DX010 (ip), vehicle: saline): 130 % of control [5 of 6 alive]
T/C (dose: 16.0 micrograms/kg/injection, schedule: Q01DX010 (ip), vehicle: saline): 125 % of control [4 of 6 alive]
T/C (dose: 25.0 micrograms/kg/injection, schedule: Q01DX005 (ip), vehicle: Klucel (hydroxypropylcellulose) (HPC)): 143, 149, 156, 158 % of control
T/C (dose: 30.0 micrograms/kg/injection, schedule: Q01DX005 (ip), vehicle: saline, evaluated on day 30): 139 and 162 % of control
T/C (dose: 30.0 micrograms/kg/injection, schedule: Q01DX005 (ip), vehicle: saline, evaluated on day 45): 156 and 157 % of control
T/C (dose: 30.0 micrograms/kg/injection, schedule: Q01DX005 (ip), vehicle: saline, evaluated on day 60): 163 % of control
T/C (dose: 30.0 micrograms/kg/injection, schedule: Q01DX009 (ip), vehicle: saline with Tween-80): 127 % of control
T/C (dose: 44.0 micrograms/kg/injection, schedule: Q01DX005 (ip), vehicle: saline, evaluated on day 30): 153, 157, 168 % of control (2×)
T/C (dose: 44.0 micrograms/kg/injection, schedule: Q01DX005 (ip), vehicle: saline, evaluated on day 45): 153, 172, 173 % of control (2×)
T/C (dose: 44.0 micrograms/kg/injection, schedule: Q01DX005 (ip), vehicle: saline, evaluated on day 60): 178 % of control
T/C (dose: 50.0 micrograms/kg/injection, schedule: Q01DX005 (ip), vehicle: Klucel (hydroxypropylcellulose) (HPC)): 153, 158, 160, 162 % of control
T/C (dose: 60.0 micrograms/kg/injection, schedule: Q01DX009 (ip), vehicle: saline with Tween-80): 132 and 138 % of control
T/C (dose: 67.0 micrograms/kg/injection, schedule: Q01DX005 (ip), vehicle: saline, evaluated on day 30): 150, 158, 161, 169, 185 % of control
T/C (dose: 67.0 micrograms/kg/injection, schedule: Q01DX005 (ip), vehicle: saline, evaluated on day 45): 155, 172, 173, 179, 196 % of control
T/C (dose: 67.0 micrograms/kg/injection, schedule: Q01DX005 (ip), vehicle: saline, evaluated on day 60): 154, 167, 180 % of control
T/C [1]: 156, 160, 179 % of control
survivor count [1]: 5 of 5
T/C (dose: 100.0 micrograms/kg/injection, schedule: Q01DX005 (ip), vehicle: saline, evaluated on day 30): 159, 160, 164, 180, 202 % of control
T/C (dose: 100.0 micrograms/kg/injection, schedule: Q01DX005 (ip), vehicle: saline, evaluated on day 45): 167, 171, 181, 185, 203 % of control
T/C (dose: 100.0 micrograms/kg/injection, schedule: Q01DX005 (ip), vehicle: saline, evaluated on day 60): 166, 172, 182 % of control
survivor count (dose: 120.0 micrograms/kg/injection, schedule: Q01DX009 (ip), vehicle: saline with Tween-80): 3 of 6
T/C (dose: 150.0 micrograms/kg/injection, schedule: Q01DX005 (ip), vehicle: saline, evaluated on day 30): 169, 174, 180, 186, 194 % of control
T/C (dose: 150.0 micrograms/kg/injection, schedule: Q01DX005 (ip), vehicle: saline, evaluated on day 45): 170, 175, 181, 184, 215 % of control
T/C (dose: 150.0 micrograms/kg/injection, schedule: Q01DX005 (ip), vehicle: saline, evaluated on day 60): 175, 182, 190 % of control
T/C [2]: 111 and 153 % of control
survivor count [2]: 0 of 5 and 4 of 6
T/C (dose: 200.0 micrograms/kg/injection, schedule: Q01DX005 (ip), vehicle: saline, evaluated on day 30): 112 and 148 % of control [9 of 10 alive]
T/C (dose: 200.0 micrograms/kg/injection, schedule: Q01DX005 (ip), vehicle: saline, evaluated on day 45): 181 % of control
T/C (dose: 200.0 micrograms/kg/injection, schedule: Q01DX005 (ip), vehicle: saline, evaluated on day 60): 99 [9 of 10 alive] and 135 % of control
survivor count (dose: 240.0 micrograms/kg/injection, schedule: Q01DX009 (ip), vehicle: saline with Tween-80): 0 of 6
T/C [3]: 132 % of control
survivor count [3]: 0 of 6

COc1ccc2ccc3c(c2c1)C(=O)C(CC(N)=O)C3 (configuration not stated)
survivor count (dose: 100.0 mg/kg/injection, schedule: Q01DX009 (ip), vehicle: distilled water + Tween-80): 6 of 6

O=C(Cl)C=Cc1ccc([N+](=O)[O-])cc1 (mixture of isomers)
survivor count [4]: 6 of 6

C#CC(=O)OCC#CCOC(=O)C#C
survivor count (dose: 12.0 mg/kg/injection, schedule: Q01DX009 (ip), vehicle: saline with Tween-80): 1 of 6

CCSC(=S)N=Nc1c(O)n(C)c2ccccc12
survivor count [4]: 6 of 6

OC1(c2nccc3ccccc23)CCN(CCc2ccccc2)CC1
survivor count (dose: 100.0 mg/kg/injection, schedule: Q01DX009 (ip), vehicle: saline with Tween-80): 6 of 6
survivor count (dose: 200.0 mg/kg/injection, schedule: Q01DX009 (ip), vehicle: saline with Tween-80): 6 of 6

NC1(c2ccccc2)CON=C(c2ccccc2)C1 (configuration not stated)
survivor count (dose: 200.0 mg/kg/injection, schedule: Q04DX003 (ip), vehicle: saline): 0 of 6
survivor count (dose: 400.0 mg/kg/injection, schedule: Q04DX003 (ip), vehicle: saline): 0 of 6

CN(C)CCCCNc1ccc(NCCCCN(C)C)c2c1C(=O)c1c(O)ccc(O)c1C2=O
survivor count (dose: 25.0 mg/kg/injection, schedule: Q01DX009 (ip), vehicle: saline): 2 of 6
survivor count (dose: 50.0 mg/kg/injection, schedule: Q01DX009 (ip), vehicle: saline): 5 of 6
survivor count (dose: 100.0 mg/kg/injection, schedule: Q01DX009 (ip), vehicle: saline): 1 of 6
survivor count [4]: 0 of 6

COC/C(Br)=C\SC#N (tested in a mixture with another compound)
survivor count (dose: 15.0 mg/kg/injection, schedule: Q01DX005 (ip), vehicle: saline with Tween-80): 0 of 6
survivor count [5]: 0 of 6
survivor count [6]: 0 of 6
survivor count [7]: 0 of 6

NC1CC2c3ccccc3C1c1ccccc12 (configuration not stated)
survivor count (dose: 100.0 mg/kg/injection, schedule: Q01DX005 (ip), vehicle: saline with Tween-80): 3 of 6
survivor count (dose: 200.0 mg/kg/injection, schedule: Q01DX005 (ip), vehicle: saline with Tween-80): 0 of 6

CN(C)C1=C(Cl)C(=O)c2ccccc2C1=O
survivor count (dose: 200.0 mg/kg/injection, schedule: Q01DX009 (ip), vehicle: Klucel (hydroxypropylcellulose) (HPC)): 4 of 6

O=C1/C(=C\c2ccccc2)C2OCC=C3CN4CCC56c7ccccc7N1C5C2C3CC46 (configuration not stated)
survivor count [5]: 0 of 6
survivor count [6]: 0 of 6
survivor count [7]: 0 of 6

CSc1nc2c(Cl)ncnc2s1
survivor count [7]: 3 of 6

C=C(C#N)C1OC2OC(C)(C)OC2C1OCCCCCCCC (configuration not stated)
survivor count (dose: 400.0 mg/kg/injection, schedule: Q04DX002 (ip), vehicle: saline with Tween-80): 1 of 6

CN(C)CC[N+](C)(C)Cc1ccc(C[N+](C)(C)CC[N+](C)(C)Cc2ccc(CCl)cc2)cc1
survivor count [8]: 2 of 6
survivor count [9]: 0 of 6
survivor count [10]: 0 of 6

C1CCC(C2CCCC[N-]2)[N-]C1.O.O.[Pd+2] (configuration not stated)
T/C (dose: 50.0 mg/kg/injection, schedule: Q04DX003 (ip), vehicle: saline with Tween-80): 125 % of control
survivor count [8]: 2 of 6
survivor count [9]: 1 of 6
survivor count [10]: 0 of 6
